Values of other authors as cited in patent US7507803B2, “Optimized multi-epitope constructs and uses thereof” (priority 2002, dated 2009).
At least one structure is not confirmed: it was looked up by name or label, or the drawing left a doubt.

Tested on: HBV
Conditions: majority of patients, multiple studies; cited from earlier work

Nc1ccn([C@@H]2CS[C@H](CO)O2)c(=O)n1 [lamivudine]
HBV DNA during treatment: HBV DNA becomes undetectable
